This note sets out measurements from article PMC4170211.

The test addresses T1, Myc-Nde1 (mouse) (UniProt Q9CZA6).
T1 sequence: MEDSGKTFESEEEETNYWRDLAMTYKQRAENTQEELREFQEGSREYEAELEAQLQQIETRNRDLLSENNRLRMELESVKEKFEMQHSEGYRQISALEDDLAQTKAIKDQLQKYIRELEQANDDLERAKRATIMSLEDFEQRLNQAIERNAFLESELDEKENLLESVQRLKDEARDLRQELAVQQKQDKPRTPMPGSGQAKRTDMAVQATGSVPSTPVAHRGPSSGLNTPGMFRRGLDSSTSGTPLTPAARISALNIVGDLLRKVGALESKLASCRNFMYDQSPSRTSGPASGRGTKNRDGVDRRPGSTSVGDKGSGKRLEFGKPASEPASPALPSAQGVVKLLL
As to the kind of experiment: co-IP; Myc-Nde1 transfected in 293T, immunoprecipitated by anti-myc 9E10 (mouse IgG as control), endogenous partners by immunoblotting; 25 mM HEPES, 150 mM NaCl, 10 mM NaF, 100 uM Na3VO4, 0.5% NP40, 10% glycerol, protease inhibitors, 1 mM ATP.

Results are given in words; binding and its absence hold for the method and conditions named. In cells and extracts the contact can be indirect. Binding can be weak; no strength is given. Where a sequence is shown, tags or fusion partners need not be part of it.

For “SMC1, endogenous (human (endogenous in 293T))”, the binding entry was “binds”.
